This note sets out measurements from PubChem BioAssay AID256 (DTP/NCI, 2004).

Each structure is given as a SMILES string. The list shows only some results of the screen, not a fair sample: it gathers tests that were run many times, whatever their T/C, doses with no T/C, and many T/C values between a quarter and a half above the control. Further doses and runs are listed elsewhere. T/C gives the treated animals as a percentage of the vehicle group. Some entries give survivors of the animals treated and no T/C: the source files T/C as zero there, which appears to mark a toxic dose or a test without result, not a measured value. Some survivor counts are full or nearly so, which does not show that the dose was tolerated: survival well below the control is almost never listed, so the zero probably covers shortened survival too. Counts of survivors are from the toxicity check (mostly the fifth day) where no day follows; animals may have died later. Schedules are NCI's codes, taken here to give the interval after Q, in days (D) or hours (H), and the number of doses after X. For survival time, the PubChem record calls one and a half times the control and up active, and a quarter to a half above the control has no call in these data; cut-offs in other NCI protocols can differ. Some T/C values carry the count of animals alive at the toxicity check (mostly the fifth day); where none is given, no animal had died by that day.

This assay has as its system CD2F1 mice, L1210 leukemia ip, survival T/C. Description: NCI In Vivo Anticancer Drug Screen. Data for tumor model L1210 Leukemia (intraperitoneal) in CD2F1 (CDF1) mice. To be noted: higher T/C = longer survival. In outline:
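Ratio T/C, where T is the treated-group value and C the vehicle-dosed control value, from mice implanted with a transplantable tumor.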

The mark [1] stands for this setting: T/C endpoint: mean survival time, dose: 100.0 mg/kg/injection, schedule: Q01DX009 (ip), vehicle: saline.
[2] abbreviates: T/C endpoint: mean survival time, dose: 200.0 mg/kg/injection, schedule: Q04DX003 (ip), vehicle: saline with Tween-80.
The mark [3] stands for this setting: T/C endpoint: mean survival time, dose: 400.0 mg/kg/injection, schedule: Q04DX003 (ip), vehicle: saline with Tween-80.
The mark [4] stands for this setting: T/C endpoint: mean survival time, dose: 400.0 mg/kg/injection, schedule: Q04DX002 (ip), vehicle: saline.

For the compound `CO[C@H]1Nc2c(ccc(C)c2O)C(=O)N2C=C(/C=C/C(N)=O)C[C@@H]12`, the survivor count is on record as 6 of 6 (T/C endpoint: mean survival time, dose: 0.6 mg/kg/injection, schedule: Q01DX015 (ip), vehicle: saline); 0 of 6 (T/C endpoint: mean survival time, dose: 2.0 mg/kg/injection, schedule: Q04DX003 (ip), vehicle: saline with Tween-80); 0 of 6 (T/C endpoint: mean survival time, dose: 4.0 mg/kg/injection, schedule: Q04DX003 (ip), vehicle: saline with Tween-80). The T/C (T/C endpoint: mean survival time, dose: 0.66 mg/kg/injection, schedule: Q04DX003 (ip), vehicle: saline with Tween-80) is 127 % of control; the T/C (T/C endpoint: mean survival time, dose: 1.0 mg/kg/injection, schedule: Q04DX003 (ip), vehicle: saline with Tween-80) is 136 % of control [5 of 6 alive]; the T/C (T/C endpoint: median survival time, dose: 0.08 mg/kg/injection, schedule: Q01DX005 (ip), vehicle: DMSO) was 130 % of control; the T/C (T/C endpoint: median survival time, dose: 0.16 mg/kg/injection, schedule: Q01DX005 (ip), vehicle: DMSO) was 146 % of control; the T/C (T/C endpoint: median survival time, dose: 0.32 mg/kg/injection, schedule: Q01DX005 (ip), vehicle: DMSO) is 144 % of control [5 of 6 alive].

For `COc1ccc2c(c1OC(C)=O)-c1cc(O)cc3c1C(C2)N(C(=O)CN(CCCl)CCCl)CC3` (centres undefined), under “T/C endpoint: mean survival time, dose: 100.0 mg/kg/injection, schedule: Q04DX003 (ip), vehicle: DMSO”, the survivor count is recorded as 5 of 6.

For the compound `CCC(C)OC(=O)CCl` (centres undefined), the survivor count (T/C endpoint: mean survival time, dose: 300.0 mg/kg/injection, schedule: Q01DX001 (ip), vehicle: other) is on record as 2 of 6.

For the compound `CC1=CC(C)=Nc2ccc(Cl)cc2N1`, the survivor count under setting [1] is listed as 6 of 6; the survivor count (T/C endpoint: mean survival time, dose: 200.0 mg/kg/injection, schedule: Q01DX009 (ip), vehicle: saline) is 6 of 6; the survivor count (T/C endpoint: mean survival time, dose: 400.0 mg/kg/injection, schedule: Q01DX009 (ip), vehicle: saline) is 2 of 6.

Turning to `CCc1nc(N)nc(N)c1-c1ccc(Cl)cc1`, the survivor count (T/C endpoint: mean survival time, dose: 32.0 mg/kg/injection, schedule: Q03HX008 (ip), vehicle: saline) was 1 of 10; the survivor count (T/C endpoint: mean survival time, dose: 32.0 mg/kg/injection, schedule: Q03HX016 (ip), vehicle: saline) is reported as 2 of 10; the survivor count (T/C endpoint: mean survival time, dose: 32.0 mg/kg/injection, schedule: Q03HX024 (ip), vehicle: saline) is recorded as 1 of 10; the survivor count (T/C endpoint: mean survival time, dose: 64.0 mg/kg/injection, schedule: Q03HX008 (ip), vehicle: saline) is recorded as 0 of 10; the survivor count (T/C endpoint: mean survival time, dose: 64.0 mg/kg/injection, schedule: Q03HX016 (ip), vehicle: saline) is reported as 0 of 10; the survivor count (T/C endpoint: mean survival time, dose: 64.0 mg/kg/injection, schedule: Q03HX024 (ip), vehicle: saline) is 0 of 10. In addition, the survivor count by setting is: (T/C endpoint: mean survival time, dose: 128.0 mg/kg/injection, schedule: Q01DX001 (ip), vehicle: saline) 5 of 10; (T/C endpoint: mean survival time, dose: 128.0 mg/kg/injection, schedule: Q01DX001 (oral), vehicle: saline) 1 of 10; (T/C endpoint: mean survival time, dose: 128.0 mg/kg/injection, schedule: Q01DX009 (ip), vehicle: saline) 7 of 10; (T/C endpoint: mean survival time, dose: 128.0 mg/kg/injection, schedule: Q01DX009 (oral), vehicle: saline) 5 of 10; (T/C endpoint: mean survival time, dose: 128.0 mg/kg/injection, schedule: Q03HX008 (ip), vehicle: saline) 0 of 10; (T/C endpoint: mean survival time, dose: 128.0 mg/kg/injection, schedule: Q03HX016 (ip), vehicle: saline) 0 of 10. Further, the survivor count was 8 of 10 (T/C endpoint: mean survival time, dose: 128.0 mg/kg/injection, schedule: Q04DX003 (ip), vehicle: saline); 0 of 10 (T/C endpoint: mean survival time, dose: 256.0 mg/kg/injection, schedule: Q01DX001 (ip), vehicle: saline); 0 of 10 (T/C endpoint: mean survival time, dose: 256.0 mg/kg/injection, schedule: Q01DX001 (oral), vehicle: saline); 0 of 10 (T/C endpoint: mean survival time, dose: 256.0 mg/kg/injection, schedule: Q01DX009 (oral), vehicle: saline); 4 of 10 (T/C endpoint: mean survival time, dose: 256.0 mg/kg/injection, schedule: Q04DX003 (ip), vehicle: saline); 3 of 10 (T/C endpoint: mean survival time, dose: 256.0 mg/kg/injection, schedule: Q08DX002 (ip), vehicle: saline). The survivor count was 2 of 10 (T/C endpoint: mean survival time, dose: 512.0 mg/kg/injection, schedule: Q01DX001 (ip), vehicle: saline); 0 of 10 (T/C endpoint: mean survival time, dose: 512.0 mg/kg/injection, schedule: Q01DX001 (oral), vehicle: saline); 0 of 10 (T/C endpoint: mean survival time, dose: 512.0 mg/kg/injection, schedule: Q01DX009 (oral), vehicle: saline); 0 of 10 (T/C endpoint: mean survival time, dose: 512.0 mg/kg/injection, schedule: Q04DX003 (ip), vehicle: saline); 0 of 10 (T/C endpoint: mean survival time, dose: 512.0 mg/kg/injection, schedule: Q08DX002 (ip), vehicle: saline); 0 of 10 (T/C endpoint: mean survival time, dose: 1024.0 mg/kg/injection, schedule: Q01DX001 (ip), vehicle: saline). Further, the survivor count is recorded as 0 of 10 (T/C endpoint: mean survival time, dose: 1024.0 mg/kg/injection, schedule: Q01DX001 (oral), vehicle: saline) and 0 of 10 (T/C endpoint: mean survival time, dose: 1024.0 mg/kg/injection, schedule: Q08DX002 (ip), vehicle: saline).

Turning to `Cn1c(=S)sc2ccccc21`, the survivor count was 1 of 3 (T/C endpoint: mean survival time, dose: 100.0 mg/kg/injection, schedule: Q04DX003 (ip), vehicle: Klucel (hydroxypropylcellulose) (HPC)); 0 of 3 under setting [2]; 0 of 3 under setting [3].

Regarding `COc1cc(OC)c(CNC2CCCCCCC2)c(OC)c1`, the survivor count (T/C endpoint: mean survival time, dose: 100.0 mg/kg/injection, schedule: Q04DX002 (ip), vehicle: saline) is listed as 1 of 3; the survivor count (T/C endpoint: mean survival time, dose: 200.0 mg/kg/injection, schedule: Q04DX002 (ip), vehicle: saline) is given as 0 of 3; the survivor count under setting [4] is recorded as 0 of 3.

With `OCc1ccn2c1C(O)CC2` (centres undefined), the T/C (T/C endpoint: mean survival time, dose: 100.0 mg/kg/injection, schedule: Q01DX009 (ip), vehicle: saline with Tween-80) was 145 % of control [5 of 6 alive]. The survivor count (T/C endpoint: mean survival time, dose: 200.0 mg/kg/injection, schedule: Q01DX009 (ip), vehicle: saline with Tween-80) is on record as 6 of 6 and the survivor count (T/C endpoint: mean survival time, dose: 400.0 mg/kg/injection, schedule: Q01DX009 (ip), vehicle: saline with Tween-80) is reported as 5 of 6.

With `O=C(O)C(O)c1ccccc1` (centres undefined), the survivor count under setting [4] is listed as 1 of 3.

With `C=C1CC(=O)N(c2cccc(C)c2)C1=O`, the survivor count by setting is: (T/C endpoint: mean survival time, dose: 100.0 mg/kg/injection, schedule: Q04DX003 (ip), vehicle: saline with Tween-80) 2 of 6; under setting [2], 0 of 6; under setting [3], 0 of 6.

On to `CN(C)C(=O)Sc1ccc(N(C)C)cc1`, for which the T/C (T/C endpoint: mean survival time, dose: 100.0 mg/kg/injection, schedule: Q04DX002 (ip), vehicle: saline with Tween-80) was 125 % of control.

Take `COc1ccc(NC(C)=O)c(O)c1C`: under “T/C endpoint: mean survival time, dose: 200.0 mg/kg/injection, schedule: Q01DX001 (ip), vehicle: saline with Tween-80”, the survivor count is 6 of 6.

`CC[N+](C)(CC)CCOC(=O)c1ccccc1Oc1ccc(C)cc1`: the survivor count under setting [1] was 3 of 6.

Take `CN=C(N)N/N=C(\c1ccccc1)c1ccc(Br)cc1`: the survivor count (T/C endpoint: median survival time, dose: 50.0 mg/kg/injection, schedule: Q01DX009 (ip), vehicle: saline) was 4 of 6.

In the case of `CN(C)C=C1C(=O)NC(=O)NC1=O`, under “T/C endpoint: mean survival time, dose: 400.0 mg/kg/injection, schedule: Q01DX001 (ip), vehicle: saline”, the survivor count is listed as 0 of 6.

As for `C[CH2][Sn]([CH2]C)([O]S(C)(=O)=O)[O]S(C)(=O)=O`, the survivor count (T/C endpoint: mean survival time, dose: 25.0 mg/kg/injection, schedule: Q01DX009 (ip), vehicle: saline) was 0 of 6.

Turning to `Nc1nc(N)c2nc(-c3ccc(Cl)c(Cl)c3)c(N)nc2n1`, the survivor count (T/C endpoint: mean survival time, dose: 200.0 mg/kg/injection, schedule: Q01DX009 (ip), vehicle: water) is 3 of 3.
